Experimental data taken from patent US7560610.
These are yes or no findings as the source states them, for the method shown. For part of these data: Binding seen in cells or lysates may run through a third protein. Some results given as binding are weak or reduced against the parent protein; the word gives no strength.

Experiments:
[1] = target: cyclin A (endogenous, Balb/c-3T3 fibroblasts) (UniProt P51943); assay: summary of co-immunoprecipitation and immunodepletion in Balb/c-3T3 cells after mitogen withdrawal
[2] = target: cyclin A (endogenous, Balb/c-3T3 fibroblasts) (UniProt P51943); assay: p27 immunoblot of cyclin A immunoprecipitates from Balb/c-3T3 cells treated with antisense or mismatch oligonucleotides
[3] = target: cyclin A (endogenous, Balb/c-3T3 fibroblasts) (UniProt P51943); assay: immunodepletion of Balb/c-3T3 extracts with p27 antiserum, then cyclin A and p27 immunoblots
[4] = target: cyclin E (endogenous, Balb/c-3T3 fibroblasts), Q61457; assay: p27 immunoblot of cyclin E immunoprecipitates from Balb/c-3T3 cells treated with antisense or mismatch oligonucleotides; settings: remark: other sources report otherwise
[5] = target: cyclin E (endogenous, Balb/c-3T3 fibroblasts), Q61457; assay: immunodepletion of Balb/c-3T3 extracts with p27 antiserum, then cyclin E and p27 immunoblots; settings: remark: other sources report otherwise
[6] = target: cyclin E (endogenous, Balb/c-3T3 fibroblasts), Q61457; assay: summary of co-immunoprecipitation and immunodepletion in Balb/c-3T3 cells after mitogen withdrawal; settings: remark: other sources report otherwise

Measured: binding

p27Kip1 protein (endogenous murine p27 of Balb/c-3T3 fibroblasts) (from UniProt P46414 1-197)
binds: [1] | [2] | [3]

B1: p27Kip1 protein (endogenous murine p27 of Balb/c-3T3 fibroblasts), P46414 1-197 (protein, UniProt P46414 1-197, looked up)
chain: MSNVRVSNGSPSLERMDARQAEHPKPSACRNLFGPVNHEELTRDLEKHCRDMEEASQRKWNFDFQNHKPLEGRYEWQEVERGSLPEFYYRPPRPPKSACKVLAQESQDVSGSRQAVPLIGSQANSEDRHLVDQMPDSSDNPAGLAEQCPGMRKRPAAEDSSSQNKRANRTEENVSDGSPNAGTVEQTPKKPGLRRQT
binds: [4] | [5] | [6]
